These results are taken from paper PMC12040169 (PLOS Biology, 2025).

SMILES strings stand for the structures. The list shows a part of the results.

This assay has as its system T1, CTL2-GFP (C. trachomatis L2/434/Bu, GFP-expressing).
T1 construct: L2/434/Bu, GFP-expressing
On the set-up: species or system HeLa; Intracellular C. trachomatis growth in HeLa cells, bulk GFP fluorescence relative to DMSO. To be noted: bulk GFP, single well; 28.5 h, 10 µM; inhibitor.
Turning to `O=C(NC(=S)Nc1ccc(N2CCN(Cc3ccccc3Cl)CC2)cc1)c1ccco1` [CBK266066], the “% of control remaining” value was 125.778%. To `Cc1cc(C2CCCCCN2Cc2cc(Cl)ccc2O)on1` (centres unmarked) [CBK281948] belongs 110.67%.

On to `c1ccc2c(c1)OCC(COc1ccnc(N3CCCN(CCN4CCOCC4)CC3)n1)O2` (centres unmarked) [CBK083976], for which the “% of control remaining” value is given as 101.97%. Turning to `Cc1ccc(S(=O)(=O)Nc2ccc(C(=O)O)cc2)cc1[N+](=O)[O-]` [CBK034055], the “% of control remaining” value worked out at 145.399%. Next, `COCc1ccc(-c2nccnc2NS(C)(=O)=O)cc1` [CBK049631]: 206.414%. Next, `Cc1ccc(S(=O)(=O)NCC(Oc2ccc([N+](=O)[O-])cc2)c2ccccc2)cc1` (centres unmarked) [CBK262208]: 94.8837%; `CC(C)c1nc(CC(=O)NCCS(=O)(=O)N2CCc3ccccc32)cs1` [CBK305630]: 117.865%; `O=C(NCCn1cc[nH]c1=O)c1cnc(-c2ccc(Cl)cc2)c(-c2ccc(O)cc2)c1` [CBK036766]: 153.44%. To `CNc1nc(C)c(C(=O)N2CCCC(COc3ccc(F)cc3)C2)s1` (centres unmarked) [CBK307234] belongs 101.852%. For `Cc1ccc(C(=O)Nc2ccccc2)cc1S(=O)(=O)N1CCN(C)CC1` [CBK270076], the “% of control remaining” value amounted to 127.173%. Next, `CN(C)CCN(C)C(=O)c1ccc(-c2ccccc2)nc1N(C)C` [CBK106070]: 137.216%.

For the compound `CCCS(=O)(=O)NC1CCN(c2nc(C(F)(F)F)nc3[nH]cnc23)CC1` [CBK304587], the “% of control remaining” value was 114.37%. Next, `O=S(=O)(c1ccc(Br)s1)N1CCC(Cc2ccccc2)CC1` [CBK043580]: 141.094%; `COc1ccc(S(=O)(=O)N2CCCC(C(=O)Nc3ccc(C(N)=O)cc3)C2)cc1C` (centres unmarked) [CBK269163]: 146.478%; `CCNC(=O)NC[C@@H]1C=C(C)[C@H](CC(=O)N2CCOCC2)C[C@H]1C(C)C` [CBK289051]: 120.316%. To `O=c1c2ccccc2nc2n1CCN(Cc1ccc(F)c(F)c1)CC2` [CBK284816] belongs 105.065%; to `COc1ccc([C@@]23CC[C@@H](NC(=O)Nc4cccc(SC)c4)C[C@@H]2N(C)CC3)cc1OC` [CBK036459T], 103.11%; to `CC(C)[C@H](CO)n1c(=O)[nH]c2ncc(-c3cccc(/C=C/C(=O)O)c3)nc21` [CBK065051], 118.568%. To `Cn1c(N2CC[C@H](O)C2)nc2cc(C(=O)NCC3CC3)ccc21` [CBK307164] belongs 122.35%; to `COc1ccc(C(=O)O)cc1NC(=S)NC(=O)c1ccc(-c2cc(Cl)ccc2Cl)o1` [CBK265074], 100%.
